Results are given in words; binding and its absence hold for the method and conditions named. Binding seen in cells or lysates may run through a third protein. Binding calls can cover weak binding; strength is not graded here.
Biological target: KIF13B MBS domain
Assay: co-IP

binding: binds
B1: KIF13B residues 1289-1499 (domain or fragment, UniProt Q9NQT8 1289-1499)
chain: MSHRSSIPGCGVTFEIVSNIPEDAQGVEEREALARMAANVENPASADSEAYIEKYLRSVLAVENLLTLDRLRQEVAVKEQLTGKGKLSRRSISSPNVNRLSGSRQDLIPSYSLGSNKGRWESQQDVSQTTVSRGIAPAPALSVSPQNNHSPDPGLSNLAASYLNPVKSFVPQMPKLLKSLFPVRDEKRGKRPSPLAHQPVPRIMVQSASPD
